From publication PMC10514085
Results are given in words; binding and its absence hold for the method and conditions named. Binding seen in cells or lysates may run through a third protein. These calls come from enrichment with a bait or labelling near it, and not all partners need be listed.

By UniProt entry, the sequences of proteins in these tests, tags left out. Where a name states a change or a piece, a line headed by the entry shows the natural chain unless it says otherwise.
UniProt P11308: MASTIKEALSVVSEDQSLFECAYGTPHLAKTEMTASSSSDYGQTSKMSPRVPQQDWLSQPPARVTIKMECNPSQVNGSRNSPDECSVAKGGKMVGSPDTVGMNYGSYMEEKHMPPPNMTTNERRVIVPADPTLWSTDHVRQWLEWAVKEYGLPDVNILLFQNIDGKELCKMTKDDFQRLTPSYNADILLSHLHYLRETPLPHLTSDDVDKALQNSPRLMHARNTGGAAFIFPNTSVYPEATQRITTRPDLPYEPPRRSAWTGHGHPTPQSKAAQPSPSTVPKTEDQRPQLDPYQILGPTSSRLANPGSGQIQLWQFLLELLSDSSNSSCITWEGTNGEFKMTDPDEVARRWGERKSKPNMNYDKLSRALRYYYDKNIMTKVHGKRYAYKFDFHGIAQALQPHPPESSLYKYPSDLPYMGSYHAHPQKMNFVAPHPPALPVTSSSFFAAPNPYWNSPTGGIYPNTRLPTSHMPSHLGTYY
UniProt O96019: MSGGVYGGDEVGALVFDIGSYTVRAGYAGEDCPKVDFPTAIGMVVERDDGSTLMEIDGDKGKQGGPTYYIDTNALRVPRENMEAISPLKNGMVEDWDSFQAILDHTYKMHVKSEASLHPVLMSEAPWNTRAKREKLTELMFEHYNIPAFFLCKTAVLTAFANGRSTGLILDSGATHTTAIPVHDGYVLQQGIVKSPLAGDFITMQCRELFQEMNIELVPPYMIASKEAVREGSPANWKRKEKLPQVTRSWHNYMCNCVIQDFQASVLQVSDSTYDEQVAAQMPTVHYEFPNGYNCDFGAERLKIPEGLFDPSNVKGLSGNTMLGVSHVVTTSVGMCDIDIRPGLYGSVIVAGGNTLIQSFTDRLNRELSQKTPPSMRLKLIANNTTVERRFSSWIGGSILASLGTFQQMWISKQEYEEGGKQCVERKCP
UniProt P51532: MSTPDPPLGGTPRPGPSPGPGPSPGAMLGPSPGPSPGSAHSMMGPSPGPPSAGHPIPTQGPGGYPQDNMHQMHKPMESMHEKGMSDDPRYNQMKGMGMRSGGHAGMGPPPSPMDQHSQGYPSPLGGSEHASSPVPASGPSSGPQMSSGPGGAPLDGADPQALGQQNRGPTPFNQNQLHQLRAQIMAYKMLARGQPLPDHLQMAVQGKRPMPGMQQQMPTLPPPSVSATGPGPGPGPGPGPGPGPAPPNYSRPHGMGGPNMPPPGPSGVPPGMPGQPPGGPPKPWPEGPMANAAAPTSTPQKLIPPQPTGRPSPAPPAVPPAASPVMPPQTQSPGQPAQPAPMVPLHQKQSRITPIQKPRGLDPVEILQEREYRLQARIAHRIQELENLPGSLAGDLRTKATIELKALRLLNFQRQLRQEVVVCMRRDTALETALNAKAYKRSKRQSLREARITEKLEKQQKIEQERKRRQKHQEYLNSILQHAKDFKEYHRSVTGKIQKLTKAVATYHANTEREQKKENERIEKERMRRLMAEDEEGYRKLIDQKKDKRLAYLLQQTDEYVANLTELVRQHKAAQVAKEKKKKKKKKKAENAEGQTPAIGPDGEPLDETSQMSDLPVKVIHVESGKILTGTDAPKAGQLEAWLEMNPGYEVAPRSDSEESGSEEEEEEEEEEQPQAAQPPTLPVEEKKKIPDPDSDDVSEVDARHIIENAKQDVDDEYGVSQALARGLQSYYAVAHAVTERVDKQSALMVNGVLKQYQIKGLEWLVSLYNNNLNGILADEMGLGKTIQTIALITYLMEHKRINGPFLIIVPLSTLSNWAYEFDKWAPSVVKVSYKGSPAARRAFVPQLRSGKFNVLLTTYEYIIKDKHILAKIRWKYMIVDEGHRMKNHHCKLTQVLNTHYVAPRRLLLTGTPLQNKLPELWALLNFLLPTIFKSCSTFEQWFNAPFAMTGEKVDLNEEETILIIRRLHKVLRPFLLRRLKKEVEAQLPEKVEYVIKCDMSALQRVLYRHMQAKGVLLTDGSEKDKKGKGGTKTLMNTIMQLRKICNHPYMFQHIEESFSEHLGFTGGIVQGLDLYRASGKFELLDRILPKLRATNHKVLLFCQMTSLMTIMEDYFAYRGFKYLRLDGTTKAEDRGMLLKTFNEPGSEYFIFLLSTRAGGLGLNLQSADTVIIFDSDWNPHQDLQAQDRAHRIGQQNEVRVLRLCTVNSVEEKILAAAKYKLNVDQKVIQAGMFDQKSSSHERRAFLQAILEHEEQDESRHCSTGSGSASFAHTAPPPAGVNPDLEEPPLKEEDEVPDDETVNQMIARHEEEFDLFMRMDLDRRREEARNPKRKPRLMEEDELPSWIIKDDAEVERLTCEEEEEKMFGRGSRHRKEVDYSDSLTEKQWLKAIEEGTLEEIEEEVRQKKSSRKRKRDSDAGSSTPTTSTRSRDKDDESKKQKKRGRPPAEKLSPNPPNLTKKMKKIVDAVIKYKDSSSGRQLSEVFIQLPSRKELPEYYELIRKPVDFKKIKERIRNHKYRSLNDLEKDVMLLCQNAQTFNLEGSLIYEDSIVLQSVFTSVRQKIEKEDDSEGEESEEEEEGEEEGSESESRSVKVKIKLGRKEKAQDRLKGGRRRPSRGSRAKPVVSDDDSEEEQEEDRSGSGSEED
UniProt Q92922: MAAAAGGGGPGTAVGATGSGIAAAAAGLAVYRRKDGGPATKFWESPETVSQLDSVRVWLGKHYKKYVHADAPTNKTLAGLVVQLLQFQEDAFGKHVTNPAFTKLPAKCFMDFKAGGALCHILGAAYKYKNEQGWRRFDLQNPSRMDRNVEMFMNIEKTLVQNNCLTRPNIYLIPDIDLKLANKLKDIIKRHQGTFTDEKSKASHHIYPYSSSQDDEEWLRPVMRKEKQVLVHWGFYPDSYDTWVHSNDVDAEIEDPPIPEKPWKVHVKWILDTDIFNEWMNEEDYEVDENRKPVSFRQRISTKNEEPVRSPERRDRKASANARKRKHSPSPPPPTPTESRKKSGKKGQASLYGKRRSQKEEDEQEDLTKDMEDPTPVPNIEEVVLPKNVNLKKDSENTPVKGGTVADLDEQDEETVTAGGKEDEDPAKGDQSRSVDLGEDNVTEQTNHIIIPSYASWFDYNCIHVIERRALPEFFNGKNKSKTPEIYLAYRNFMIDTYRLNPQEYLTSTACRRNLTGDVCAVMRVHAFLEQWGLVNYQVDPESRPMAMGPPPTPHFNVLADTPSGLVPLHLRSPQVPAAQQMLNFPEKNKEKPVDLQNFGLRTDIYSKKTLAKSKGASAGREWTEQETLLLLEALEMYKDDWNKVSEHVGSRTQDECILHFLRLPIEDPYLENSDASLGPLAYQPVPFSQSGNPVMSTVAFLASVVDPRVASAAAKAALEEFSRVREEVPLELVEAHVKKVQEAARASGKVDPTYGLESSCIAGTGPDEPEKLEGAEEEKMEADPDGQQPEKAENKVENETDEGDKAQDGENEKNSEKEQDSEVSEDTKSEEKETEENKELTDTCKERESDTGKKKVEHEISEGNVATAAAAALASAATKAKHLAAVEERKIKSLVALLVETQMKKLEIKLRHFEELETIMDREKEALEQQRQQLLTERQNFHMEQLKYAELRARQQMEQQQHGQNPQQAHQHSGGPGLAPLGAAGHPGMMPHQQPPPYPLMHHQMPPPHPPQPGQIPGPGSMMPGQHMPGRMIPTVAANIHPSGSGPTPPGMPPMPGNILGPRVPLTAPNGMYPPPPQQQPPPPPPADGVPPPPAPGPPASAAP
UniProt Q8TAQ2: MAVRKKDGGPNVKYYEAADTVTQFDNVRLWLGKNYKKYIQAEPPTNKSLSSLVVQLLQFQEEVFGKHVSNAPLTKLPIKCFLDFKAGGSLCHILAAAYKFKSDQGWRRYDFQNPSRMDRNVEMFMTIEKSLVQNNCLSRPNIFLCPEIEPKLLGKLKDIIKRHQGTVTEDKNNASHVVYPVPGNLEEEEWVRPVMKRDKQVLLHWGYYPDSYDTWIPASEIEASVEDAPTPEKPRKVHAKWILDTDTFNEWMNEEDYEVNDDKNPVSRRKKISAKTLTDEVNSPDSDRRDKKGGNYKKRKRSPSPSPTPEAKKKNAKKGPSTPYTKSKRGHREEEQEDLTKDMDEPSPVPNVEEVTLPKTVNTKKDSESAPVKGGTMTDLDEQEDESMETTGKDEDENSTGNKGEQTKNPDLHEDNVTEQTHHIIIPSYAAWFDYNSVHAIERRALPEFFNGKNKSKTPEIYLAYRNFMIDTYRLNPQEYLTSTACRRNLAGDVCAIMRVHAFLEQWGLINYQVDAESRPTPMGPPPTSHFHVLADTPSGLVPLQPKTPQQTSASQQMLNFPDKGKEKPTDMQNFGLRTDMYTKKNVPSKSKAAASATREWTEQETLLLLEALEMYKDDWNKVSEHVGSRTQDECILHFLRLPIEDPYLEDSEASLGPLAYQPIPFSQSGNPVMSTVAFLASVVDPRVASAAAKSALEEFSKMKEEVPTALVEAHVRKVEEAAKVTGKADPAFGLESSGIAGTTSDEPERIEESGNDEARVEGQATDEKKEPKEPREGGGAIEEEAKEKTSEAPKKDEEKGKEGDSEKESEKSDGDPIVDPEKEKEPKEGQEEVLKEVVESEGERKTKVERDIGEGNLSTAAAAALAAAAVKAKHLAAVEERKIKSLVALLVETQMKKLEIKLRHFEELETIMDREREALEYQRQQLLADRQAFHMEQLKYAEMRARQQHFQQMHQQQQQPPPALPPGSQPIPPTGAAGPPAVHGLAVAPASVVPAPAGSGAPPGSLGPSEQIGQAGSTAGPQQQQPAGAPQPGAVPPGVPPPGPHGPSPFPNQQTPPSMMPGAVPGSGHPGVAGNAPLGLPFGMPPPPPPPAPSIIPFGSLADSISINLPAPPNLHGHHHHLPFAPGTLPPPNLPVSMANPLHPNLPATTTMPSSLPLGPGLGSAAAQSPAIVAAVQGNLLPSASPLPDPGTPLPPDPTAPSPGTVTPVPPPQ
UniProt Q96GM5: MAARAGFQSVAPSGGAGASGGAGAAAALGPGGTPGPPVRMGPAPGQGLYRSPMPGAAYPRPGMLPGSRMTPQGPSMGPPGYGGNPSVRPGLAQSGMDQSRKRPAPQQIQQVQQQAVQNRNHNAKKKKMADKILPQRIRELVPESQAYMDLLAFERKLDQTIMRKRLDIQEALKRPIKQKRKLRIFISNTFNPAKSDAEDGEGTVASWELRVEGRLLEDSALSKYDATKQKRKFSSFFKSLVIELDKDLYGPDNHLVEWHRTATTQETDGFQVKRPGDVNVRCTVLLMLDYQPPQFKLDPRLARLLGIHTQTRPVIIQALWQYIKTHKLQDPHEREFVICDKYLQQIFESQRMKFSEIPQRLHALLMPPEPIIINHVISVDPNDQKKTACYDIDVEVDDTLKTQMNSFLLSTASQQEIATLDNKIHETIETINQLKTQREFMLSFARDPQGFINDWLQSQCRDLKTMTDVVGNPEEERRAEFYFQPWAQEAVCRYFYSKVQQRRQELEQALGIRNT
UniProt Q92925: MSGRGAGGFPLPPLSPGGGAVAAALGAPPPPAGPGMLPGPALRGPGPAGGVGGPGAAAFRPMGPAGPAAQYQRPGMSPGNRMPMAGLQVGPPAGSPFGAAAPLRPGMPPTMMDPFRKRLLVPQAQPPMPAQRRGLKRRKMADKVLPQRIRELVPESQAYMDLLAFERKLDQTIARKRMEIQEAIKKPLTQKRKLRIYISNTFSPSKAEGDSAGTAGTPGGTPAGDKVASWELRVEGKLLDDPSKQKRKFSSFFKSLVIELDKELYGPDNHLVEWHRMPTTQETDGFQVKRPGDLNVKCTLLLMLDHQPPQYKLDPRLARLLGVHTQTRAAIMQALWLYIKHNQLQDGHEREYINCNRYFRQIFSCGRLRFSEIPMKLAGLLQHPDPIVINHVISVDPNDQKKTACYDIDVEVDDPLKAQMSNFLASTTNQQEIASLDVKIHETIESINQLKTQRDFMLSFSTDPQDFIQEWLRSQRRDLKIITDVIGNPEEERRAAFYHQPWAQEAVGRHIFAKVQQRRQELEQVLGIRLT
UniProt Q969G3: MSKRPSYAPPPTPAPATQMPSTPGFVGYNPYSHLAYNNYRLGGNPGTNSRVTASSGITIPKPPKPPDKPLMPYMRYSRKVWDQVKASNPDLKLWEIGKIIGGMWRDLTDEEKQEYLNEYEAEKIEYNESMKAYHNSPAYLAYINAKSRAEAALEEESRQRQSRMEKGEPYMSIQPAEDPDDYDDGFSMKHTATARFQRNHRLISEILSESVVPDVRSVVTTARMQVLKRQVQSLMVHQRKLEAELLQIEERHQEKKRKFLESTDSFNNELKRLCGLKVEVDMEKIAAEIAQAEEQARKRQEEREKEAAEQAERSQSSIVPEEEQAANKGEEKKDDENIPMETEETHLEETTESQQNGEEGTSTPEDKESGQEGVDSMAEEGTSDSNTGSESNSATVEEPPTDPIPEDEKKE

Target: FLAG-BirA*-ERG 1-479 WT (human) (UniProt P11308)
Assay: proximity labelling; BioID: FLAG-BirA*-ERG bait induced with doxycycline in stable HEK293 GnT-/- cells, 50 uM biotin for 24 h; streptavidin-Sepharose capture from modified RIPA lysate, LC-MS/MS; SAINT score >0.8, FDR <0.05

| binding | Substance |
| --- | --- |
| binds | ACTL6A (from UniProt O96019 1-429) |
| binds | GPS2 (from UniProt Q13227 1-327) |
| binds | NCoR1 (from UniProt O75376 1-2440) |
| binds | SMARCA4 (from UniProt P51532 1-1647) |
| binds | SMARCB1 (from UniProt Q12824 1-385) |
| binds | SMARCC1 (from UniProt Q92922 1-1105) |
| binds | SMARCC2 (from UniProt Q8TAQ2 1-1214) |
| binds | SMARCD1 (from UniProt Q96GM5 1-515) |
| binds | SMARCD2 (from UniProt Q92925 1-531) |
| binds | SMARCE1 (from UniProt Q969G3 1-411) |
